Literature values as cited in patent US11241436B2, “Autophagy inducers for treatment of CNS conditions” (Northwestern University, priority 2017, dated 2022).
At least one compound was matched to its structure with a doubt left.

Test system: mouse models of AD
Details: cited from earlier work

CO[C@H]1C[C@@H]2CC[C@@H](C)[C@@](O)(O2)C(=O)C(=O)N2CCCC[C@H]2C(=O)O[C@H]([C@H](C)C[C@@H]2CC[C@@H](O)[C@H](OC)C2)CC(=O)[C@H](C)/C=C(\C)[C@@H](O)[C@@H](OC)C(=O)[C@H](C)C[C@H](C)/C=C/C=C/C=C/1C [rapamycin, reference compound]
amyloid burden and memory deficit: reduces amyloid burden and memory deficit
